Test results: paper PMC9726891, “SESAME-catalyzed H3T11 phosphorylation inhibits Dot1-catalyzed H3K79me3 to regulate autophagy and telomere silencing” (Nature Communications, 2022)

Amino acid sequences for entries named in this document (tags omitted).
UniProt P10659: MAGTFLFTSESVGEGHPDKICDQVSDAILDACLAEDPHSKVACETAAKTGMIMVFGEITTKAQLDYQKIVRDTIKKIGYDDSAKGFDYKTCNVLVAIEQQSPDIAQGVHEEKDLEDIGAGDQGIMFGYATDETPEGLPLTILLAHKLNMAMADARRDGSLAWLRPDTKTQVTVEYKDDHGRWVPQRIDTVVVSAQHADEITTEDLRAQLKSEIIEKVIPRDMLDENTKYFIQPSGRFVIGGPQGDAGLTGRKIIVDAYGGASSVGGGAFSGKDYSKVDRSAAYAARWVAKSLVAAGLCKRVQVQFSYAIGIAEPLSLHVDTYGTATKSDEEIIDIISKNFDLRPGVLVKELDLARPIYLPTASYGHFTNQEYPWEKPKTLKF

T1: Reb1-FLAG (S. cerevisiae (endogenous in yeast)) (UniProt P21538)
T1 sequence: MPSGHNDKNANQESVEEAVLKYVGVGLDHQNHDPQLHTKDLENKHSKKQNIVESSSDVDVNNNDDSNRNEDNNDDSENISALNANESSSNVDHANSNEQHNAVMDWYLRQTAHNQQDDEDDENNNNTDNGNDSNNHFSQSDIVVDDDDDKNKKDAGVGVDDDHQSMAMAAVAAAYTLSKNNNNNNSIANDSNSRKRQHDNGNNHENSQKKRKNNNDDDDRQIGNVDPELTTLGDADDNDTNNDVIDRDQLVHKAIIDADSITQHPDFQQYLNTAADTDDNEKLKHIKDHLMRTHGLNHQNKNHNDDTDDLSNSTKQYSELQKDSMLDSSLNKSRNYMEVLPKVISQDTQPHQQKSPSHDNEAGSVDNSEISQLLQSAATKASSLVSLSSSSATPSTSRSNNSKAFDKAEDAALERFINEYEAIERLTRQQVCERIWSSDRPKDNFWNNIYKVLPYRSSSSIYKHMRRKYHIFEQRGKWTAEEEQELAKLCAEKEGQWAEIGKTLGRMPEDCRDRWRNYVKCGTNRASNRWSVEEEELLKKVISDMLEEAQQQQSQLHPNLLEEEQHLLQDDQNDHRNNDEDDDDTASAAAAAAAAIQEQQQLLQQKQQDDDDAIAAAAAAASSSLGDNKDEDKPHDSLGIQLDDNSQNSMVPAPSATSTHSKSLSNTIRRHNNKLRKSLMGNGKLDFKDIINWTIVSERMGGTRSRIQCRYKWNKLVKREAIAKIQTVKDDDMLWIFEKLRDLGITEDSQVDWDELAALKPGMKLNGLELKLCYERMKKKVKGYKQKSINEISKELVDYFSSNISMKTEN


Molecular target: T1, Reb1-FLAG (S. cerevisiae (endogenous in yeast))
Experiment: affinity purification with mass spectrometry; Reb1-FLAG immunoprecipitated by anti-FLAG beads; LC-MS of the tryptic digest; one biological replicate

Row | Molecule | binding
1 | Sam1 (from UniProt P10659 1-382) (enzyme) | binds
2 | pyruvate kinase Pyk1 (enzyme, UniProt P00549 1-500) MSRLERLTSLNVVAGSDLRRTSIIGTIGPKTNNPETLVALRKAGLNIVRMNFSHGSYEYHKSVIDNARKSEELYPGRPLAIALDTKGPEIRTGTTTNDVDYPIPPNHEMIFTTDDKYAKACDDKIMYVDYKNITKVISAGRIIYVDDGVLSFQVLEVVDDKTLKVKALNAGKICSHKGVNLPGTDVDLPALSEKDKEDLRFGVKNGVHMVFASFIRTANDVLTIREVLGEQGKDVKIIVKIENQQGVNNFDEILKVTDGVMVARGDLGIEIPAPEVLAVQKKLIAKSNLAGKPVICATQMLESMTYNPRPTRAEVSDVGNAILDGADCVMLSGETAKGNYPINAVTTMAETAVIAEQAIAYLPNYDDMRNCTPKPTSTTETVAASAVAAVFEQKAKAIIVLSTSGTTPRLVSKYRPNCPIILVTRCPRAARFSHLYRGVFPFVFEKEPVSDWTDDVEARINFGIEKAKEFGILKKGDTYVSIQGFKAGAGHSNTLQVSTV | binds
3 | Shm2 (enzyme, UniProt P37291 1-469) MPYTLSDAHHKLITSHLVDTDPEVDSIIKDEIERQKHSIDLIASENFTSTSVFDALGTPLSNKYSEGYPGARYYGGNEHIDRMEILCQQRALKAFHVTPDKWGVNVQTLSGSPANLQVYQAIMKPHERLMGLYLPDGGHLSHGYATENRKISAVSTYFESFPYRVNPETGIIDYDTLEKNAILYRPKVLVAGTSAYCRLIDYKRMREIADKCGAYLMVDMAHISGLIAAGVIPSPFEYADIVTTTTHKSLRGPRGAMIFFRRGVRSINPKTGKEVLYDLENPINFSVFPGHQGGPHNHTIAALATALKQAATPEFKEYQTQVLKNAKALESEFKNLGYRLVSNGTDSHMVLVSLREKGVDGARVEYICEKINIALNKNSIPGDKSALVPGGVRIGAPAMTTRGMGEEDFHRIVQYINKAVEFAQQVQQSLPKDACRLKDFKAKVDEGSDVLNTWKKEIYDWAGEYPLAV | binds
4 | Acs2 (enzyme, UniProt P52910 1-683) MTIKEHKVVYEAHNVKALKAPQHFYNSQPGKGYVTDMQHYQEMYQQSINEPEKFFDKMAKEYLHWDAPYTKVQSGSLNNGDVAWFLNGKLNASYNCVDRHAFANPDKPALIYEADDESDNKIITFGELLRKVSQIAGVLKSWGVKKGDTVAIYLPMIPEAVIAMLAVARIGAIHSVVFAGFSAGSLKDRVVDANSKVVITCDEGKRGGKTINTKKIVDEGLNGVDLVSRILVFQRTGTEGIPMKAGRDYWWHEEAAKQRTYLPPVSCDAEDPLFLLYTSGSTGSPKGVVHTTGGYLLGAALTTRYVFDIHPEDVLFTAGDVGWITGHTYALYGPLTLGTASIIFESTPAYPDYGRYWRIIQRHKATHFYVAPTALRLIKRVGEAEIAKYDTSSLRVLGSVGEPISPDLWEWYHEKVGNKNCVICDTMWQTESGSHLIAPLAGAVPTKPGSATVPFFGINACIIDPVTGVELEGNDVEGVLAVKSPWPSMARSVWNHHDRYMDTYLKPYPGHYFTGDGAGRDHDGYYWIRGRVDDVVNVSGHRLSTSEIEASISNHENVSEAAVVGIPDELTGQTVVAYVSLKDGYLQNNATEGDAEHITPDNLRRELILQVRGEIGPFASPKTIILVRDLPRTRSGKIMRRVLRKVASNEAEQLGDLTTLANPEVVPAIISAVENQFFSQKKK | binds

No constants are given. Whether binding was seen depends on the method and setting. Binding seen in cells or lysates may run through a third protein. A yes stands for co-enrichment or nearness to the bait. Other partners may have been found. Tags and fused reporters may be left off the sequences shown.
